{"source": "paper PMC4559561", "about": "“Radioiodinated PARP1 tracers for glioblastoma imaging” (EJNMMI Research, 2015)", "test_system": "orthotopic U251 MG tumors", "experiment": "Ex vivo autoradiography of orthotopic tumor sections", "format": "in vivo, mouse", "key": {"[1]": {"conditions": "no Olaparib, 500 μCi, 2 h circulation"}}}
{"smiles": "O=C(c1ccc([131I])cc1)N1CCN(C(=O)c2cc(Cc3n[nH]c(=O)c4ccccc34)ccc2F)CC1", "note": "[[^131I]-I2-PARPi]", "values": [{"measurement": "autoradiography signal intensity, tumor tissue vs healthy brain tissue", "setting": "[1]", "result": 15.7, "unit": "fold"}, {"measurement": "autoradiography signal intensity, tumor tissue vs muscle tissue", "setting": "[1]", "result": 6.2, "unit": "fold"}, {"measurement": "autoradiography signal intensity, muscle", "setting": "with Olaparib treatment", "result": "248 ± 72", "unit": "AU"}, {"measurement": "autoradiography signal intensity, tumor tissue", "setting": "with Olaparib treatment", "result": "536 ± 87", "unit": "AU"}, {"measurement": "autoradiography signal intensity, muscle", "setting": "without Olaparib treatment", "result": "192 ± 20", "unit": "AU"}, {"measurement": "autoradiography signal intensity, tumor tissue", "setting": "without Olaparib treatment", "result": "1222 ± 203", "unit": "AU"}]}
